These are yes or no findings as the source states them, for the method shown. For part of these data: In cells and extracts the contact can be indirect. Some results given as binding are weak or reduced against the parent protein; the word gives no strength. For part of these data: Where a sequence is shown, tags or fusion partners need not be part of it.
Columns and labels:
[1] = target: T1, PHGDH-HA, expressed in TLR4-293T cells (UniProt Q61753); test: co-IP; PHGDH-HA precipitated with anti-HA-agarose from TLR4-293T extracts; without or with LPS 30 min (Fig. 4C), LPS for the indicated times (Fig. 4G), pretreated with 15 μM CBR-5884 for 6 h then LPS 30 min (Fig. 5B); immunoblot
T1 sequence: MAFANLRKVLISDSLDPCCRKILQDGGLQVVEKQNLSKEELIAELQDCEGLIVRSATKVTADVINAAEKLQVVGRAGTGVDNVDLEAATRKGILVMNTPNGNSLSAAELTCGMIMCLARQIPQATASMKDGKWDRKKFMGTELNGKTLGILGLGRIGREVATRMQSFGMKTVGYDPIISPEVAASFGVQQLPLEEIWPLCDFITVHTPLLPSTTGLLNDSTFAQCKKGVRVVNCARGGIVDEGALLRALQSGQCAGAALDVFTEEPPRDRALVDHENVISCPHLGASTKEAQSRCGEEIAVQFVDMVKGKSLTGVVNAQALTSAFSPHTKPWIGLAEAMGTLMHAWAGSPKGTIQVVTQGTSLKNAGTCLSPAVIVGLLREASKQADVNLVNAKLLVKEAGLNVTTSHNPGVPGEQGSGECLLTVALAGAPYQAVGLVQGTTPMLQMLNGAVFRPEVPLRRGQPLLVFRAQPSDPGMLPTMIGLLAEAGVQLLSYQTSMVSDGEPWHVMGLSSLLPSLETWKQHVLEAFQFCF

[2] = target: T2, TAK1-Flag, expressed in TLR4-293T cells (UniProt Q62073); test: co-IP; TAK1-Flag precipitated with anti-Flag beads from TLR4-293T extracts without or with LPS 30 min; immunoblot
T2 sequence: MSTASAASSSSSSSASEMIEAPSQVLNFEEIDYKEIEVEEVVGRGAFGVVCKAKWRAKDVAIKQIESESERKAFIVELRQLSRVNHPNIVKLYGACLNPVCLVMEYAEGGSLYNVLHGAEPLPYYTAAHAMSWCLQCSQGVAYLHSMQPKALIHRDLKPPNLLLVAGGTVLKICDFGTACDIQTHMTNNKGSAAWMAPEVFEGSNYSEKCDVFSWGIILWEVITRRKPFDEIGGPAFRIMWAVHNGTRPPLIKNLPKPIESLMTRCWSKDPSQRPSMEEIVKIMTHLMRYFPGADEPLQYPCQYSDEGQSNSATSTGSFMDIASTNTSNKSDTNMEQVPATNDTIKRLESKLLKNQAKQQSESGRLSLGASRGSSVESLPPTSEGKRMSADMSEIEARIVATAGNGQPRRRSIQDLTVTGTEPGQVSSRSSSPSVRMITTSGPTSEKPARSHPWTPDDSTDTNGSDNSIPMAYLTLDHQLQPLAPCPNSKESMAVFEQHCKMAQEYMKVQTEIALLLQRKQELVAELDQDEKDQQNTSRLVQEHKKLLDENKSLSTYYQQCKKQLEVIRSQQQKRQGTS

[3] = target: T3, PHGDH, endogenous in mouse peritoneal macrophages (mouse (endogenous in peritoneal macrophages)) (UniProt Q61753); test: co-IP; endogenous PHGDH precipitated with an anti-PHGDH antibody from PM extracts without or with LPS 30 min; immunoblot
T3 sequence: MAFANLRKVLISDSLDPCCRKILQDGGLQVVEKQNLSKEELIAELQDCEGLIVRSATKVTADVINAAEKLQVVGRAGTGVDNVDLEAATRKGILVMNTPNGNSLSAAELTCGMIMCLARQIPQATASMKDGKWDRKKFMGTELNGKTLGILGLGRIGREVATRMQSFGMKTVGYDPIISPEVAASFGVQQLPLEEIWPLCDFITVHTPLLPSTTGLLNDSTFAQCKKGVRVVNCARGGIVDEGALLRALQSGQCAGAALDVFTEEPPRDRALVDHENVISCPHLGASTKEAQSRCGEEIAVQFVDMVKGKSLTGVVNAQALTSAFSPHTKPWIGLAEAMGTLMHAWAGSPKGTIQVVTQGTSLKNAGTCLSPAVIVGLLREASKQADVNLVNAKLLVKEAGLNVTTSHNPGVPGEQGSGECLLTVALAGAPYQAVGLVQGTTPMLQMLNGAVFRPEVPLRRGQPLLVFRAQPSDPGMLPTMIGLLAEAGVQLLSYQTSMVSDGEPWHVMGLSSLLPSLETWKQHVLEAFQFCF

[4] = target: T4, TAK1, endogenous in mouse peritoneal macrophages (mouse (endogenous in peritoneal macrophages)) (UniProt Q62073); test: co-IP; endogenous TAK1 precipitated with an anti-TAK1 antibody from PM extracts without or with LPS 30 min; immunoblot
T4 sequence: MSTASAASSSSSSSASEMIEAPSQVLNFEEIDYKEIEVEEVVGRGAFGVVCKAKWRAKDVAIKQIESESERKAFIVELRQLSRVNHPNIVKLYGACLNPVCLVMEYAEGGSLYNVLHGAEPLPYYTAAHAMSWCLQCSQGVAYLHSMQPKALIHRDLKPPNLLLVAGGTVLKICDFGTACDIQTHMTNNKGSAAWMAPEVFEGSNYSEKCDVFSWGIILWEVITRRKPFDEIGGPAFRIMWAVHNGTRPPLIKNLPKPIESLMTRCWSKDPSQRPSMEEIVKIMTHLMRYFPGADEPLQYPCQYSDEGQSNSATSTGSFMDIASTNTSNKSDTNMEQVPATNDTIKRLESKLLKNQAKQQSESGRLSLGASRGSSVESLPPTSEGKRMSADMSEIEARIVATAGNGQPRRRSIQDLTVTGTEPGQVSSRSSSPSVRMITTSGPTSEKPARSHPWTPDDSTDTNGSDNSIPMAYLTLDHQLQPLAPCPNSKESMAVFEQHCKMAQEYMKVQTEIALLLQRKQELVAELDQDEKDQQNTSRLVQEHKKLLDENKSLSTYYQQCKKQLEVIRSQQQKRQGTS

[5] = target: T5, His-tagged PHGDH, purified recombinant (UniProt Q61753); test: pull-down; His pull-down: purified His-tagged PHGDH proteins and GST-tagged TAK1 mixed, pulled down with TALON Metal Affinity Resins, eluate analysed by SDS-PAGE; purified GST/His as controls; both purified
T5 sequence: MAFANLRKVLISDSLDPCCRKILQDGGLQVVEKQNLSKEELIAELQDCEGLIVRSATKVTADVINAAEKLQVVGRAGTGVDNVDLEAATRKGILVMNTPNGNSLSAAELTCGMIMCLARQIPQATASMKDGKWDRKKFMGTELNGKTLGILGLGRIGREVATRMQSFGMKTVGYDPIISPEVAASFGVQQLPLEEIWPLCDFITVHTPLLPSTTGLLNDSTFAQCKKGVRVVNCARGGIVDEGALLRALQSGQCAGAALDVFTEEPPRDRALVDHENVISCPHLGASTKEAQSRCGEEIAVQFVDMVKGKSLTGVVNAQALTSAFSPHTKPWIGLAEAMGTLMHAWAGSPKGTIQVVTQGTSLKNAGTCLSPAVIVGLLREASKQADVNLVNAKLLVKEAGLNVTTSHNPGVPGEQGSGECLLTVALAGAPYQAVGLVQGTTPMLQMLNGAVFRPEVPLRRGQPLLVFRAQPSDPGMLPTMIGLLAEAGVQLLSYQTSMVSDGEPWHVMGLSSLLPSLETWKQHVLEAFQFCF

[6] = target: T6, His-tagged PHGDH-(286–533), purified recombinant (UniProt Q61753); test: as above
T6 sequence: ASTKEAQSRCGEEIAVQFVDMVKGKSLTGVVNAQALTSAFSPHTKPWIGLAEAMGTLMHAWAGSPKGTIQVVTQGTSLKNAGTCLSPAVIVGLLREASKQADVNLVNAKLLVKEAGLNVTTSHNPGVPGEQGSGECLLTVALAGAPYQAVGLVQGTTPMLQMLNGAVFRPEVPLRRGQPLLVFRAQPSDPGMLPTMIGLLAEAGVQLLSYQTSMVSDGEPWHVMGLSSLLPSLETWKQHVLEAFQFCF

B1: TAK1-Flag, expressed in TLR4-293T cells (enzyme, UniProt Q62073 1-579)
chain: MSTASAASSSSSSSASEMIEAPSQVLNFEEIDYKEIEVEEVVGRGAFGVVCKAKWRAKDVAIKQIESESERKAFIVELRQLSRVNHPNIVKLYGACLNPVCLVMEYAEGGSLYNVLHGAEPLPYYTAAHAMSWCLQCSQGVAYLHSMQPKALIHRDLKPPNLLLVAGGTVLKICDFGTACDIQTHMTNNKGSAAWMAPEVFEGSNYSEKCDVFSWGIILWEVITRRKPFDEIGGPAFRIMWAVHNGTRPPLIKNLPKPIESLMTRCWSKDPSQRPSMEEIVKIMTHLMRYFPGADEPLQYPCQYSDEGQSNSATSTGSFMDIASTNTSNKSDTNMEQVPATNDTIKRLESKLLKNQAKQQSESGRLSLGASRGSSVESLPPTSEGKRMSADMSEIEARIVATAGNGQPRRRSIQDLTVTGTEPGQVSSRSSSPSVRMITTSGPTSEKPARSHPWTPDDSTDTNGSDNSIPMAYLTLDHQLQPLAPCPNSKESMAVFEQHCKMAQEYMKVQTEIALLLQRKQELVAELDQDEKDQQNTSRLVQEHKKLLDENKSLSTYYQQCKKQLEVIRSQQQKRQGTS
B1 was tested, and the binding [1] was “binds”.

B2: PHGDH-HA, expressed in TLR4-293T cells (enzyme, UniProt Q61753 1-533)
chain: MAFANLRKVLISDSLDPCCRKILQDGGLQVVEKQNLSKEELIAELQDCEGLIVRSATKVTADVINAAEKLQVVGRAGTGVDNVDLEAATRKGILVMNTPNGNSLSAAELTCGMIMCLARQIPQATASMKDGKWDRKKFMGTELNGKTLGILGLGRIGREVATRMQSFGMKTVGYDPIISPEVAASFGVQQLPLEEIWPLCDFITVHTPLLPSTTGLLNDSTFAQCKKGVRVVNCARGGIVDEGALLRALQSGQCAGAALDVFTEEPPRDRALVDHENVISCPHLGASTKEAQSRCGEEIAVQFVDMVKGKSLTGVVNAQALTSAFSPHTKPWIGLAEAMGTLMHAWAGSPKGTIQVVTQGTSLKNAGTCLSPAVIVGLLREASKQADVNLVNAKLLVKEAGLNVTTSHNPGVPGEQGSGECLLTVALAGAPYQAVGLVQGTTPMLQMLNGAVFRPEVPLRRGQPLLVFRAQPSDPGMLPTMIGLLAEAGVQLLSYQTSMVSDGEPWHVMGLSSLLPSLETWKQHVLEAFQFCF
For B2, the binding [2] was “binds”.

B3: TAK1, endogenous in mouse peritoneal macrophages (enzyme, UniProt Q62073 1-579)
chain: MSTASAASSSSSSSASEMIEAPSQVLNFEEIDYKEIEVEEVVGRGAFGVVCKAKWRAKDVAIKQIESESERKAFIVELRQLSRVNHPNIVKLYGACLNPVCLVMEYAEGGSLYNVLHGAEPLPYYTAAHAMSWCLQCSQGVAYLHSMQPKALIHRDLKPPNLLLVAGGTVLKICDFGTACDIQTHMTNNKGSAAWMAPEVFEGSNYSEKCDVFSWGIILWEVITRRKPFDEIGGPAFRIMWAVHNGTRPPLIKNLPKPIESLMTRCWSKDPSQRPSMEEIVKIMTHLMRYFPGADEPLQYPCQYSDEGQSNSATSTGSFMDIASTNTSNKSDTNMEQVPATNDTIKRLESKLLKNQAKQQSESGRLSLGASRGSSVESLPPTSEGKRMSADMSEIEARIVATAGNGQPRRRSIQDLTVTGTEPGQVSSRSSSPSVRMITTSGPTSEKPARSHPWTPDDSTDTNGSDNSIPMAYLTLDHQLQPLAPCPNSKESMAVFEQHCKMAQEYMKVQTEIALLLQRKQELVAELDQDEKDQQNTSRLVQEHKKLLDENKSLSTYYQQCKKQLEVIRSQQQKRQGTS
With B3 the binding [3] was “binds”.

B4: PHGDH, endogenous in mouse peritoneal macrophages (enzyme, UniProt Q61753 1-533, looked up)
chain: MAFANLRKVLISDSLDPCCRKILQDGGLQVVEKQNLSKEELIAELQDCEGLIVRSATKVTADVINAAEKLQVVGRAGTGVDNVDLEAATRKGILVMNTPNGNSLSAAELTCGMIMCLARQIPQATASMKDGKWDRKKFMGTELNGKTLGILGLGRIGREVATRMQSFGMKTVGYDPIISPEVAASFGVQQLPLEEIWPLCDFITVHTPLLPSTTGLLNDSTFAQCKKGVRVVNCARGGIVDEGALLRALQSGQCAGAALDVFTEEPPRDRALVDHENVISCPHLGASTKEAQSRCGEEIAVQFVDMVKGKSLTGVVNAQALTSAFSPHTKPWIGLAEAMGTLMHAWAGSPKGTIQVVTQGTSLKNAGTCLSPAVIVGLLREASKQADVNLVNAKLLVKEAGLNVTTSHNPGVPGEQGSGECLLTVALAGAPYQAVGLVQGTTPMLQMLNGAVFRPEVPLRRGQPLLVFRAQPSDPGMLPTMIGLLAEAGVQLLSYQTSMVSDGEPWHVMGLSSLLPSLETWKQHVLEAFQFCF
notes: phosphoglycerate dehydrogenase (PHGDH), endogenous in mouse peritoneal macrophages; Seen as tetramers and dimers after cross-linking of the lysate; also called endogenous PHGDH; source: endogenous, mouse peritoneal macrophage (PM) extract
B4 was tested, and the binding [4] was “binds”.

B5: GST-tagged TAK1, purified recombinant (enzyme, UniProt Q62073 1-579)
chain: MSTASAASSSSSSSASEMIEAPSQVLNFEEIDYKEIEVEEVVGRGAFGVVCKAKWRAKDVAIKQIESESERKAFIVELRQLSRVNHPNIVKLYGACLNPVCLVMEYAEGGSLYNVLHGAEPLPYYTAAHAMSWCLQCSQGVAYLHSMQPKALIHRDLKPPNLLLVAGGTVLKICDFGTACDIQTHMTNNKGSAAWMAPEVFEGSNYSEKCDVFSWGIILWEVITRRKPFDEIGGPAFRIMWAVHNGTRPPLIKNLPKPIESLMTRCWSKDPSQRPSMEEIVKIMTHLMRYFPGADEPLQYPCQYSDEGQSNSATSTGSFMDIASTNTSNKSDTNMEQVPATNDTIKRLESKLLKNQAKQQSESGRLSLGASRGSSVESLPPTSEGKRMSADMSEIEARIVATAGNGQPRRRSIQDLTVTGTEPGQVSSRSSSPSVRMITTSGPTSEKPARSHPWTPDDSTDTNGSDNSIPMAYLTLDHQLQPLAPCPNSKESMAVFEQHCKMAQEYMKVQTEIALLLQRKQELVAELDQDEKDQQNTSRLVQEHKKLLDENKSLSTYYQQCKKQLEVIRSQQQKRQGTS
With B5 the binding [5] was “binds” and the binding [6] was “binds”.
